# Assay results as given in article PMC9307114, “Discovery and SAR analysis of phenylbenzo[d][1,3]dioxole-based proprotein convertase subtilisin/kexin type 9 inhibitors” (Journal of Enzyme Inhibition and Medicinal Chemistry, 2022).
# Tested on: HepG2 cells
# Assay: MTT assay on HepG2 cells
# Format: cell-based, human
# Conditions: 10 µM, mean of three experiments
structure (smiles),measurement,value
"O=C(CCCCCCC(=O)Nc1ccccc1)NO [SAHA, reference compound]",HepG2 percentage inhibitory rate,89.2 ± 1.76%
